Reference: PubChem BioAssay AID1508597 (Cure First, 2020)

- Assay: 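Survival screen with siRNA in ovarian cancer cells derived from patients, with or without rucaparib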 (primary screen)
- Cell system: human ovarian carcinoma lines grown from tumours: OCI-P5x (papillary serous) and OCI-C5x (clear cell)
- Reagent: siRNA pool against human genes, 1.25 pmol siRNA per well
- Timing: 72 h or 96 h, depending on the cell culture
- Conditions: rucaparib 20 µM (about IC30) or vehicle, present until read-out
- Measured: 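Luminescent ATP-based viability assay read 72 or 96 h after transfection, depending on culture, given as normalised percent viability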
- Reading the numbers: viability, normalised: higher = more viable cells remaining
- Active means: 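Active when normalised viability falls below 80 percent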
- Meaning of the calls: active = viability under 80%; inactive = viability 80% or more
Shown is a random part of about 2,100 reagents. 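Calls flag viability under 80% in either arm, not effects specific to rucaparib; the reference for percent is not stated.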 A reagent listed more than once was tested more than once; the source does not tell the runs apart. Not given: the 100% reference.

The first 3 records, ahead of the listing:
| gene | rucaparib or vehicle | cell line | technical replicate | viability, normalised (%) | Outcome |
| --- | --- | --- | --- | --- | --- |
| PRPF19 | Rucaparib | OCI-C5x (clear cell) | 1 | 50.3 | active |
| PRPF19 | Rucaparib | OCI-C5x (clear cell) | 1 | 30.4 | active |
| PRPF19 | Rucaparib | OCI-C5x (clear cell) | 2 | 49.5 | active |

Results, from the start:
| gene | rucaparib or vehicle | cell line | technical replicate | viability, normalised (%) | Outcome |
| --- | --- | --- | --- | --- | --- |
| PRPF19 | Rucaparib | OCI-C5x (clear cell) | 1 | 50.3 | active |
| PRPF19 | Rucaparib | OCI-C5x (clear cell) | 1 | 30.4 | active |
| PRPF19 | Rucaparib | OCI-C5x (clear cell) | 2 | 49.5 | active |
| PRPF19 | Rucaparib | OCI-C5x (clear cell) | 2 | 37.4 | active |
| PRPF19 | Rucaparib | OCI-C5x (clear cell) | 3 | 49.3 | active |
| PRPF19 | Rucaparib | OCI-C5x (clear cell) | 3 | 38.4 | active |
| PRPF19 | Rucaparib | OCI-P5x (serous) | 1 | 42.6 | active |
| PRPF19 | Rucaparib | OCI-P5x (serous) | 1 | 34.8 | active |
| PRPF19 | Rucaparib | OCI-P5x (serous) | 2 | 52.4 | active |
| PRPF19 | Rucaparib | OCI-P5x (serous) | 2 | 38.1 | active |
| PRPF19 | Rucaparib | OCI-P5x (serous) | 3 | 52.1 | active |
| PRPF19 | Rucaparib | OCI-P5x (serous) | 3 | 52.7 | active |
| PRPF19 | Vehicle | OCI-C5x (clear cell) | 1 | 39 | active |
| PRPF19 | Vehicle | OCI-C5x (clear cell) | 1 | 26.1 | active |
| PRPF19 | Vehicle | OCI-C5x (clear cell) | 2 | 32.2 | active |
| PRPF19 | Vehicle | OCI-C5x (clear cell) | 2 | 43.3 | active |
| PRPF19 | Vehicle | OCI-C5x (clear cell) | 3 | 44.6 | active |
| PRPF19 | Vehicle | OCI-C5x (clear cell) | 3 | 26.6 | active |
| PRPF19 | Vehicle | OCI-P5x (serous) | 1 | 43.8 | active |
| PRPF19 | Vehicle | OCI-P5x (serous) | 1 | 52.4 | active |
| PRPF19 | Vehicle | OCI-P5x (serous) | 2 | 45.7 | active |
| PRPF19 | Vehicle | OCI-P5x (serous) | 2 | 46 | active |
| PRPF19 | Vehicle | OCI-P5x (serous) | 3 | 42.7 | active |
| PRPF19 | Vehicle | OCI-P5x (serous) | 3 | 67.1 | active |
| ITGB1 | Rucaparib | OCI-C5x (clear cell) | 1 | 54.4 | active |
| ITGB1 | Rucaparib | OCI-C5x (clear cell) | 2 | 44 | active |
| ITGB1 | Rucaparib | OCI-C5x (clear cell) | 3 | 40.8 | active |
| ITGB1 | Rucaparib | OCI-P5x (serous) | 1 | 77.2 | active |
| ITGB1 | Rucaparib | OCI-P5x (serous) | 2 | 71.9 | active |
| ITGB1 | Rucaparib | OCI-P5x (serous) | 3 | 75.7 | active |
| ITGB1 | Vehicle | OCI-C5x (clear cell) | 1 | 42.6 | active |
| ITGB1 | Vehicle | OCI-C5x (clear cell) | 2 | 48.1 | active |
| ITGB1 | Vehicle | OCI-C5x (clear cell) | 3 | 67.6 | active |
| ITGB1 | Vehicle | OCI-P5x (serous) | 1 | 60.7 | active |
| ITGB1 | Vehicle | OCI-P5x (serous) | 2 | 67.5 | active |
| ITGB1 | Vehicle | OCI-P5x (serous) | 3 | 67.5 | active |
| FGFR3 | Rucaparib | OCI-C5x (clear cell) | 1 | 48.9 | active |
| FGFR3 | Rucaparib | OCI-C5x (clear cell) | 2 | 48.2 | active |
| FGFR3 | Rucaparib | OCI-C5x (clear cell) | 3 | 60.7 | active |
| FGFR3 | Rucaparib | OCI-P5x (serous) | 1 | 56.2 | active |
| FGFR3 | Rucaparib | OCI-P5x (serous) | 2 | 73.9 | active |
| FGFR3 | Rucaparib | OCI-P5x (serous) | 3 | 66.8 | active |
| FGFR3 | Vehicle | OCI-C5x (clear cell) | 1 | 74.8 | active |
| FGFR3 | Vehicle | OCI-C5x (clear cell) | 2 | 56.9 | active |
| FGFR3 | Vehicle | OCI-C5x (clear cell) | 3 | 45.8 | active |
| FGFR3 | Vehicle | OCI-P5x (serous) | 1 | 73.7 | active |
| FGFR3 | Vehicle | OCI-P5x (serous) | 2 | 59.3 | active |
| FGFR3 | Vehicle | OCI-P5x (serous) | 3 | 66.1 | active |
| SHPRH | Rucaparib | OCI-C5x (clear cell) | 1 | 29.8 | active |
| SHPRH | Rucaparib | OCI-C5x (clear cell) | 2 | 37.3 | active |
| SHPRH | Rucaparib | OCI-C5x (clear cell) | 3 | 33.6 | active |
| SHPRH | Rucaparib | OCI-P5x (serous) | 1 | 46.8 | active |
| SHPRH | Rucaparib | OCI-P5x (serous) | 2 | 51.5 | active |
| SHPRH | Rucaparib | OCI-P5x (serous) | 3 | 56.8 | active |
| SHPRH | Vehicle | OCI-C5x (clear cell) | 1 | 31.4 | active |
| SHPRH | Vehicle | OCI-C5x (clear cell) | 2 | 28.3 | active |
| SHPRH | Vehicle | OCI-C5x (clear cell) | 3 | 36.2 | active |
| SHPRH | Vehicle | OCI-P5x (serous) | 1 | 66.1 | active |
| SHPRH | Vehicle | OCI-P5x (serous) | 2 | 62.6 | active |
| SHPRH | Vehicle | OCI-P5x (serous) | 3 | 80.3 | inactive |
